Patent US6489098B1, “Means and methods for monitoring nucleoside reverse transcriptase inhibitor antiretroviral therapy and guiding therapeutic decisions in the treatment of HIV/AIDS” (ViroLogic, Inc., priority 1998, dated 2002)
Values joined by “and” are separate entries in the source; they are usually repeats but may differ in a detail not shown here. Identical values can stand only once. For part of these data: The name of at least one read-out is uncertain. For part of these data: For at least one compound, name, drawing or mass did not settle the structure.

Columns and labels:
[1] = test system: HIV-1 RT mutant resistance test vector M41L-A62V-T69SSA-T215Y-L210W-RTV; assay: Phenotypic susceptibility assay, site directed RTV M41L+A62V+T69SSA+L210W+T215Y; assay type: cell-based; details: RTV with 41 + 62 + 69 + 210 + 215; 3 replicates
Description: (§1) Resistance tests were carried out with resistance test vectors using two host cell types. Resistance test vector viral particles were produced by a first host cell (the resistance test vector host cell) that was prepared by transfecting a packaging host cell with the resistance test vector and the packaging expression vector. The resistance test vector viral particles were then used to infect a second host cell (the target host cell) in which the expression of the indicator gene is measured.
(§2) The resistance test vectors containing a functional luciferase gene cassette were constructed and host cells were transfected with the resistance test vector DNA. The resistant test vectors contained patient-derived reverse transcriptase and protease sequences that were either susceptible or resistant to the antiretroviral agents, such as nucleoside reverse transcriptase inhibitors, non-nucleoside reverse transcriptase inhibitors and protease inhibitors. The resistance test vector viral particles produced by transfecting the resistance test vector DNA into host cells, either in the presence or absence of protease inhibitors, were used to infect target host cells grown either in the absence of NRTI or NNRTI or In the presence of increasing concentrations of the drug. The amount of luciferase activIty produced in infected target host cells in the presence of drug was compared to the amount of luciferase produced in infected target host cells in the absence of drug. Drug resistance was measured as the amount of drug required to inhibit by 50% the luciferase activity detected in the absence of drug (Inhibitory concentration 50%, IC50). The IC50 values were determined by plotting percent drug inhibition vs. log 10 drug concentration.
(§3) Host cells were seeded in 10-cm-diameter dishes and were transfected several days after plating with resistance test vector plasmid DNA and the envelope expression vector. Transfections were performed using a calcium-phosphate precipitation procedure. The cell culture media containing the DNA precipitate was replaced with fresh medium, from one to 24 hours, after transfection. Cell culture media containing resistance test vector viral particles was harvested one to four days after transfection and was passed through a […] filter before being stored at −80° C. HIV capsid protein (p24) levels in the harvested cell culture media were determined by an EIA method as described by the manufacturer (SIAC; Frederick, Md.). Before infection, target cells (293 and 293/T) were plated in cell culture media. Control infections were performed using cell culture media from mock transfections (no DNA) or transfections containing the resistance test vector plasmid DNA without the envelope expression plasmid. One to three or more days after infectIon the media was removed and cell lysis buffer (Promega) was added to each well. […] The inhibitory effect of the drug was determined using the following equation:
(§4) % luciferase inhibition=1−(RLUluc[drug]÷RLUluc)×100
(§5) where RLUluc [drug] is the relative light unit of luciferase activity in infected cells in the presence of drug and RLUluc is the Relative Light Unit of luciferase activity in infected cells in the absence of drug. IC50 values were obtained from the sigmoidal curves that were generated from the data by plotting the percent inhibition of luciferase activity vs. the log 10 drug concentration.
(§6) Mutations may be incorporated alone and/or in combination with other known drug resistance mutations that are thought to modulate the susceptibility of HIV to a certain drug or class of drugs. Mutations are introduced into the resistance test vector through any of the widely known methods for site-directed mutagenesis. In one embodiment of this invention the mega-primer PCR method for site-directed mutagenesis is used.

[2] = test system: HIV-1 RT mutant resistance test vector A62V-T69SSA-T215Y-RTV; assay: Phenotypic susceptibility assay, site directed RTV A62V-T69SSA-T215Y; assay type: cell-based; details: RTV with 62 + 69 + 215 (A62V, T69SSA, T215Y); 1 replicate
Description: as §1, §2, §3, §4, §5, §6

[3] = test system: HIV with multi-nucleoside resistance complex (A62V, V75I, F77L, Y116F and Q115M); details: patients on prolonged ZDV plus ddI or ddC; cited from earlier work
[4] = test system: HIV-1 RT mutant resistance test vector M41L-A62V-T69SSA-T215Y-RTV; assay: Phenotypic susceptibility assay, site directed RTV M41L+A62V+T69SSA+T215Y; assay type: cell-based
Description: as §1, §2, §3, §4, §5, §6

[5] = test system: HIV-1 RT mutant resistance test vector A62V-T69SSA-L74V-RTV; assay: Phenotypic susceptibility assay, site directed RTV A62V-T69SSA-L74V; assay type: cell-based; details: RTV with 62 + 69 + 74V; 1 replicate
Description: as §1, §2, §3, §4
as §5, with “concentration. […]” for “concentration.”

Nc1ccn([C@@H]2CS[C@H](CO)O2)c(=O)n1 [3TC, lamivudine]
Average fold reduction in susceptibility [1]: 22 fold and 21.98 fold
Average fold reduction in susceptibility [2]: 15 fold and 14.82 fold
cross-resistance of isolates with substitutions at codons 62, 75, 77, 116 and 115 [3]: partial cross-resistance
Average fold reduction in susceptibility ([4]; RTV with 41 + 62 + 69 + 215, 3 replicates): 8 fold and 8.10 fold
effect on susceptibility (words) ([4]; RTV with M41L+A62V+T69SSA+T215Y, addition of A62V to M41L+T69SSA+T215Y): no effect on susceptibility
Average fold reduction in susceptibility [5]: 2.5 fold and 2.46 fold
